# Reference: PubChem BioAssay AID995 (National Center for Advancing Translational Sciences (NCATS), 2007)
# The campaign covered roughly 72,000 compounds. About 710 (0.99%) were called active. These results got no clear call from the source, so the numbers are uncertain. Calls come from the whole dose curve; as a rule, active = well fitted inhibition curve with a large enough effect; inconclusive = small, poorly fitted or top-dose-only effect; inactive = no such curve, though single readings can be large or run the other way.
# Assay: qHTS Assay for Inhibitors of the ERK Signaling Pathway using a Homogeneous Screening Assay; note: nearly all actives have a fitted effect of over 55% in size
# Settings: HEK293-V1b, vasopressin-stimulated pERK AlphaScreen
# Potency is the fitted concentration of half-maximal effect.
row,Compound,Potency
1,N#[O+].[C-]#N.[C-]#N.[C-]#N.[C-]#N.[C-]#N.[Fe+2].[Na+].[Na+],inconclusive: 31.6 µM
